Laboratory results: PubChem BioAssay AID493246 (Drosophila RNAi Screening Center, 2011)
Assay: 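Genome-wide search for dsRNAs that reduce cell number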 (primary screen). System: Drosophila Kc and S2R+ cells. Knock-down reagent: long dsRNA against Drosophila genes. Measurement: 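Cell number per well after knock-down, printed as raw plate values; calls were based on per-plate z-scores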. Direction: Kc cell number and S2R+ cell number: higher = more cells remaining. Active means: 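Counted as a hit if cell number falls by a z-score of at least 3 within its plate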.
The deposit covers about 21,000 reagents; this is a random part of those that have a named target and a result. Over the whole deposit, 429 (2%) are marked active. 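Values are raw and not normalised between plates; calls rest on per-plate z-scores that were not deposited.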 Reagents against one gene are numbered here. Names joined by + are all predicted targets of the reagent. Not stated in the record: the amount of reagent, the time to read-out.

no.	gene knocked down	reagent	Kc cell number, rep 1	Kc cell number, rep 2	S2R+ cell number, rep 1	S2R+ cell number, rep 2	call
1	CG14572	1	1.37e6	1.50e6	1.26e6	1.33e6	inactive
2	mgl (Megalin)	1	1.51e6	1.45e6	1.02e6	1.12e6	inactive
3	mgl (Megalin)	2	5.86e5		8.49e5		inactive
4	mgl (Megalin)	3	1.55e6	1.55e6	9.96e5	1.13e6	inactive
5	mgl (Megalin)	4	1.49e6	1.49e6	1.00e6	1.08e6	inactive
6	CG1394	1	1.55e6	1.48e6	1.06e6	1.15e6	inactive
7	alien	1	1.12e6	1.25e6	8.70e5	9.41e5	inactive
8	CG15916	1	1.42e6	1.44e6	1.09e6	1.14e6	inactive
9	osy (oskyddad)	1	1.88e6	1.88e6	1.06e6	1.19e6	inactive
10	osy (oskyddad)	2	1.71e6	1.74e6	1.08e6	1.23e6	inactive
11	osy (oskyddad)	3	4.85e5		7.47e5		inactive
12	CG9222	1	1.79e6	2.16e6	1.22e6	1.41e6	inactive
13	CG4409	1	1.53e6	1.56e6	1.12e6	1.27e6	inactive
14	CG11737	1	1.58e6	1.77e6	1.24e6	1.28e6	inactive
15	tn (thin)	1	5.88e5		8.10e5		inactive
16	tn (thin)	2	1.13e6	1.19e6	1.12e6	1.03e6	inactive
17	Mob3 (MOB kinase activator 3)	1	1.70e6	1.80e6	1.33e6	1.45e6	inactive
18	Cnot4 (CCR4-NOT transcription complex subunit 4)	1	1.64e6	1.67e6	1.09e6	1.20e6	inactive
19	Cnot4 (CCR4-NOT transcription complex subunit 4)	2	1.58e6	1.63e6	1.01e6	1.16e6	inactive
20	Tep4 (Thioester-containing protein 4)	1	1.74e6	1.73e6	1.33e6	3.47e5	inactive
21	CG34253	1	1.36e6	1.43e6	1.09e6	1.31e6	inactive
22	mid (midline)	1	1.56e6	1.66e6	1.07e6	1.18e6	inactive
23	Ipp (Inositol polyphosphate 1-phosphatase)	1	1.47e6	1.69e6	1.02e6	1.09e6	inactive
24	CG15601	1	1.43e6	1.47e6	1.06e6	1.09e6	inactive
25	Nlg1 (Neuroligin 1)	1	1.55e6	1.61e6	1.12e6	1.35e6	inactive
26	Nlg1 (Neuroligin 1)	2	1.55e6	1.68e6	1.18e6	1.28e6	inactive
27	Nlg1 (Neuroligin 1)	3	1.39e6	1.54e6	1.22e6	1.25e6	inactive
28	Nlg1 (Neuroligin 1)	4	1.41e6	1.56e6	1.23e6	1.31e6	inactive
29	CG15894	1	1.45e6	1.42e6	1.07e6	1.14e6	inactive
30	CG15894	2	1.40e6	1.43e6	8.20e5	9.10e5	inactive
31	Ir8a (Ionotropic receptor 8a)	1	1.58e6	1.53e6	1.09e6	1.18e6	inactive
32	Ir8a (Ionotropic receptor 8a)	2	1.67e6	1.51e6	1.02e6	1.13e6	inactive

The list goes on (6 carried over from the part before).
no.	gene knocked down	reagent	Kc cell number, rep 1	Kc cell number, rep 2	S2R+ cell number, rep 1	S2R+ cell number, rep 2	call
27	Nlg1 (Neuroligin 1)	3	1.39e6	1.54e6	1.22e6	1.25e6	inactive
28	Nlg1 (Neuroligin 1)	4	1.41e6	1.56e6	1.23e6	1.31e6	inactive
29	CG15894	1	1.45e6	1.42e6	1.07e6	1.14e6	inactive
30	CG15894	2	1.40e6	1.43e6	8.20e5	9.10e5	inactive
31	Ir8a (Ionotropic receptor 8a)	1	1.58e6	1.53e6	1.09e6	1.18e6	inactive
32	Ir8a (Ionotropic receptor 8a)	2	1.67e6	1.51e6	1.02e6	1.13e6	inactive
33	PolQ (DNA polymerase theta)	1	1.88e6	1.96e6	1.33e6	1.38e6	inactive
34	CG42827 + CG42828	1	1.23e6	1.69e6	1.04e6	1.16e6	inactive
35	Scp1 (Sarcoplasmic calcium-binding protein 1)	1	1.33e6	1.71e6	1.24e6	1.23e6	inactive
36	Scp1 (Sarcoplasmic calcium-binding protein 1)	2	1.53e6	1.69e6	1.11e6	1.20e6	inactive
37	Scp1 (Sarcoplasmic calcium-binding protein 1)	3	1.50e6	1.58e6	1.09e6	1.18e6	inactive
38	CG3625	1	1.71e6	1.65e6	1.05e6	1.19e6	inactive
39	CG3625	2	1.27e6	1.33e6	5.85e5	7.02e5	inactive
40	VhaM9.7-d (Vacuolar H[+] ATPase M9.7 subunit d)	1	1.35e6	1.33e6	1.05e6	1.15e6	inactive
41	gdrd (goddard)	1	1.40e6	1.60e6	1.28e6	1.42e6	inactive
42	CG15515	1	1.49e6	1.55e6	1.03e6	1.15e6	inactive
43	CG14352	1	1.66e6	1.63e6	1.08e6	1.26e6	inactive
44	BG642163	1	1.51e6	1.44e6	1.14e6	1.20e6	inactive
45	BG642163	2	1.52e6	1.44e6	1.13e6	1.29e6	inactive
46	CG3368	1	5.14e5		8.72e5		inactive
47	ppk3 (pickpocket 3)	1	1.53e6	1.57e6	1.28e6	1.33e6	inactive
48	CG17328	1	1.41e6	1.33e6	1.04e6	1.19e6	inactive
49	CG15172	1	1.64e6	1.69e6	1.22e6	2.51e5	inactive
50	Pde11 (Phosphodiesterase 11)	1	1.67e6	1.75e6	1.15e6	2.15e5	inactive
51	dpy (dumpy)	1	1.38e6	1.42e6	1.02e6	1.14e6	inactive
52	dpy (dumpy)	2	1.40e6	1.48e6	1.03e6	1.14e6	inactive
53	dpy (dumpy)	3	1.67e6	1.64e6	1.09e6	1.25e6	inactive
54	CG14304	1	1.30e6	1.31e6	9.41e5	1.01e6	inactive
55	gry (gryzun)	1	1.51e6	1.36e6	1.05e6	1.15e6	inactive
56	gry (gryzun)	2	1.39e6	1.45e6	1.20e6	1.14e6	inactive
57	CG9164	1	1.56e6	1.67e6	1.04e6	1.14e6	inactive
58	CG9164	2	6.11e5		8.38e5		inactive
59	CG18324	1	1.41e6	1.43e6	1.14e6	1.18e6	inactive
